Some entries share one result that the patent states for a list of compounds. At least one structure is not confirmed: it was looked up by name or label, or the drawing left a doubt.
Each compound was assayed on production of TNF by monocytes activated with bacterial lipopolysaccharide (LPS) (assay: Lipopolysaccharide-activated monocyte TNF production assay). Conditions: whole blood monocyte assay (LPS induced TNF release).
Format: cell-based, human
Experimental: Test compounds were evaluated in vitro for the ability to inhibit the production of TNF by monocytes activated with bacterial lipopolysaccharide (LPS). Fresh residual source leukocytes (a byproduct of plateletpheresis) were obtained from a local blood bank, and peripheral blood mononuclear cells (PBMCs) were isolated by density gradient centrifugation on Ficol-Paque Plus (Pharmacia). PBMCs were suspended at 2×10^6/mL in DMEM supplemented to contain 2% FCS, 10 mM, 0.3 mg/mL […], 100 U/mL penicillin G and […] streptomycin sulfate (complete media). Cells were plated into Falcon flat bottom, 96 well culture plates (200 μL/well) and cultured overnight at 37° C. and 6% CO2. Non-adherent cells were removed by washing with 200 μl/well of fresh medium.
Test compounds were dissolved in […]. Compound stock solutions were prepared to an initial concentration of […]. Stocks were diluted initially to 20-200 μM in complete media. Nine two-fold serial dilutions of each compound were then prepared in complete medium.
One hundred microliters of each test compound dilution were added to microtiter wells containing adherent monocytes and 100 μL complete medium. Monocytes were cultured with test compounds for 60 min at which time 25 μL of complete medium containing 30 ng/mL lipopolysaccharide from E. coli K532 were added to each well. Cells were cultured an additional 4 hrs. Culture supernatants were then removed and TNF presence in the supernatants was quantified using an ELISA.
Flat bottom, 96 well Corning High Binding ELISA plates were coated overnight (4° C.) with 150 μL/well of 3 μg/mL murine anti-human TNF-α MAb (R&D Systems #MAB210). Wells were then blocked for 1 h at room temperature with 200 μL/well of CaCl2-free ELISA buffer supplemented to contain 20 mg/mL BSA (standard ELISA buffer: […], 150 mM NaCl, 2 mM CaCl2, 0.15 mM thimerosal, pH 7.4). Plates were washed and replenished with 100 μL of test supernatants (diluted 1:3) or standards. Standards consisted of eleven 1.5-fold serial dilutions from a stock of I ng/mL recombinant human TNF (R&D Systems). Plates were incubated at room temperature for 1 h on orbital shaker (300 rpm), washed and replenished with 100 μL/well of 0.5 μg/mL goat anti-human TNF-α (R&D systems #AB-210-NA) biotinylated at a 4:1 ratio. Plates were incubated for 40 min, washed and replenished with 100 μL/well of alkaline phosphatase-conjugated streptavidin (Jackson ImmunoResearch #016-050-084) at 0.02 μg/mL. Plates were incubated 30 min, washed and replenished with 200 μL/well of 1 mg/mL of p-nitrophenyl phosphate. After 30 min, plates were read at 405 nm on a Vmax plate reader.
Standard curve data were fit to a second order polynomial and unknown TNF-α concentrations determined from their OD by solving this equation for concentration. TNF concentrations were then plotted vs. test compound concentration using a second order polynomial. This equation was then used to calculate the concentration of test compounds causing a 50% reduction in TNF production.

Q: `Cc1ccc(C(=O)NC2CC2)cc1-c1ccc2c(-c3cc(C(=O)NC4CC4)ccc3C)nncc2c1` [Example 161, N-cyclopropyl-4-methyl-3-[1-(2-methyl-5-N-cyclopropylamido-phenyl)phthalazin-6-yl]benzamide] was tested. Which IC50 did it give?
A: The IC50 was no more than 5 µM.

Q: How did the IC50 turn out when `Cc1ccc(C(=O)NC2CC2)cc1-c1ccc2c(N3CCOCC3)nncc2c1` [Example 45, N-cyclopropyl-4-methyl-3-(1-moropholinophthalazin-6-yl)benzamide] was run?
A: The IC50 was no more than 5 µM.

Q: How did the IC50 turn out when `Cc1ccc(C(=O)NC2CC2)cc1-c1ccc2c(N3CCN(C(N)=O)CC3)nncc2c1` [Example 59, 4-(6-(5-(cyclolpropylcarbamoyl)-2-methylphenyl)phthalazin-1-yl)piperazine-1-carboxamide] was run?
A: The IC50 was no more than 5 µM.

Q: For `Cc1ccc(C(=O)NC2CC2)cc1-c1ccc2c(N3CCC4CCCCC4C3)nncc2c1` (stereo not shown) [Example 30, N-cyclopropyl-4-methyl-3-(1-(octahydroisoguinolin-2(1 H)-yl)phthalazin-6-yl)benzamide], which IC50 is on record?
A: The IC50 was no more than 5 µM.

Q: With `Cc1ccc(C(=O)NC2CC2)cc1-c1ccc2c(N3CC4CC3CN4C(C)C)nncc2c1` (stereo not shown) [Example 26, N-cyclopropyl-3-(1-(5-isopropyl-2.5-diaza-bicyclo[2.2.1]heptan-2-yl)phthalazin-6-yl)-4-methylbenzamide] as the compound, how does the IC50 read?
A: The IC50 was no more than 5 µM.

Q: `Cc1ccc(C(=O)NC2CC2)cc1-c1ccc2c(N3CCN(S(C)(=O)=O)CC3)nncc2c1` [Example 71] was tested. Which IC50 did it give?
A: The IC50 was no more than 5 µM.

Q: Which IC50 does the source give for `Cc1ccc(C(=O)NC2CC2)cc1-c1ccc2c(N3CCC(O)C3)nncc2c1` (stereo not shown) [Example 24, N-cyclopropyl-3-(1-(3-hydroxypyrolidin-1-yl)phthalazin-6-yl)-4-methylbenzamide] here?
A: The IC50 was no more than 5 µM.

— patent publication US7759337B2, “Phthalazine compounds and methods of use” (Amgen Inc., priority 2005, dated 2010)
